# Measurements as given in patent publication US20100286069A1, “CATIONIC PEPTIDE FOR DELIVERING AN AGENT INTO A CELL” (priority 2007, published 2010).
# Some results were stated once for a whole list of compounds, not compound by compound.
# Test system: DNA
# Test: Kinetics of DNA capture (PicoGreen)
# Assay type: binding
# Conditions: PicoGreen fluorescence
# Procedure: Upon condensation of the DNA, however, PicoGreen becomes excluded resulting in a drop in florescent intensity. Making use of this behavior, the kinetics of the DNA capturing process was traced and quantified. At time=0, the peptide solution was dripped into the DNA solution and vortexed for ˜10 seconds. At appropriate time intervals, 10 μL of the complex solution was taken out and mixed with 990 μL of PicoGreen working solution (diluted 400 times from its stock solution with TE buffer, pH 7.3). The fluorescence emission spectrum was then recorded with a Fluorolog LFI 3751 fluorescence spectrometer (Jobin Yvon Horiba). The excitation wavelength used was 480 nm and the silts were set to 4 nm. The fluorescence area intensity at any time point expressed as a percentage of the fluorescence intensity obtained with the initial concentration of DNA (before mixing with peptide) was used to reflect the concentration of uncaptured/loosely captured DNA. A profile was plotted to trace the temporal evolution of the DNA capturing process. Blanks and background were corrected for in all calculations.
# To further understand the efficiency and kinetics of DNA capture by the peptides, PicoGreen was used as a sensitive fluorescence probe. […] This behavior can be employed to trace the temporal evolution of free/loosely bound DNA in solution.
substance,measurement,value
NH2—H4R8—CONH2,time for completion of the DNA-capture process,less than 1 minute
